Source: paper PMC9851726
No constants are given. Whether binding was seen depends on the method and setting. Binding seen in cells or lysates may run through a third protein. Some entries that bind do so weakly or less than the wild type.

Sequences of proteins named here, by UniProt entry; tags and fusion partners are left off. A change or cut given only in a name is not applied to a line headed by its entry. Residues count along the entry.
UniProt P01024: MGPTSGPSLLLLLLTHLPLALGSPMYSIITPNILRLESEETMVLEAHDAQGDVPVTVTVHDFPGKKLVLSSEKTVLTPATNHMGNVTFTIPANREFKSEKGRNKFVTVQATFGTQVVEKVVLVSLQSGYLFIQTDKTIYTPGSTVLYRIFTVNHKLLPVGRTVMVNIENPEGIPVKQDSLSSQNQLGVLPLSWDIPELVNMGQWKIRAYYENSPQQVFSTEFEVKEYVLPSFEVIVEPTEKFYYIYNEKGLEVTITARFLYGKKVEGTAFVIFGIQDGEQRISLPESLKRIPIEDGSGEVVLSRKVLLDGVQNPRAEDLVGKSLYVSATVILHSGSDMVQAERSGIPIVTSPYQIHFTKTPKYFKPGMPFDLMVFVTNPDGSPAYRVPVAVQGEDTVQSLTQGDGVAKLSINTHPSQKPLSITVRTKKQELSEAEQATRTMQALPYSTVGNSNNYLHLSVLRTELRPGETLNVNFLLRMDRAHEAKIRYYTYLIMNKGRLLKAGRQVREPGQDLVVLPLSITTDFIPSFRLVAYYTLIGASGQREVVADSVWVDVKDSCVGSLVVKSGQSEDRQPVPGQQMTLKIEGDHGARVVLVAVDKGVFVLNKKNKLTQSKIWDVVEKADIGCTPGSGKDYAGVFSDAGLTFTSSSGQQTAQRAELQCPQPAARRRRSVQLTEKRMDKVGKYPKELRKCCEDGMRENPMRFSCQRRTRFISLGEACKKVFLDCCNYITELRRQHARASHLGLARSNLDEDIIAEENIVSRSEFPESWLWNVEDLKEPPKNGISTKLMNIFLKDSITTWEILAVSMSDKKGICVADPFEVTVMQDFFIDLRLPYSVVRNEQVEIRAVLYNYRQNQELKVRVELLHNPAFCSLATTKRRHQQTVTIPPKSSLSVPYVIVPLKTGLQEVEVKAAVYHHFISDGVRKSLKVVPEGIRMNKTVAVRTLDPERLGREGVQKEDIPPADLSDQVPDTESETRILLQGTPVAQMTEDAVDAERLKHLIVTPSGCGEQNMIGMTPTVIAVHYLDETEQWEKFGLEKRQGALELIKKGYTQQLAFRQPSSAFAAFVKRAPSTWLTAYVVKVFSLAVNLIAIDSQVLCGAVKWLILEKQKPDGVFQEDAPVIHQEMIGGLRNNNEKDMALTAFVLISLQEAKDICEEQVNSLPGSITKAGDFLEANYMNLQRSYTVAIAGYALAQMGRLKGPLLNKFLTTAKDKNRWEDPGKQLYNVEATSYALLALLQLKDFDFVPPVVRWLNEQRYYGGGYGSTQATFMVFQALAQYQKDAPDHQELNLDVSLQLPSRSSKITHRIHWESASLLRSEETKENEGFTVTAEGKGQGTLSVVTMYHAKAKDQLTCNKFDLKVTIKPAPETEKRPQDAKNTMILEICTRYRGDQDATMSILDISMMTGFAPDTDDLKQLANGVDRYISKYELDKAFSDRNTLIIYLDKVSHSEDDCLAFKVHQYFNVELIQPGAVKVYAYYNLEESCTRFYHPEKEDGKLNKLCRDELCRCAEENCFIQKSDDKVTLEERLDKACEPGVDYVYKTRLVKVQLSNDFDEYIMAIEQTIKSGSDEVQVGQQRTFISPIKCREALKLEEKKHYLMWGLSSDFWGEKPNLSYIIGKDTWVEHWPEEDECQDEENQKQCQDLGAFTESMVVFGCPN
UniProt P0DTC8, residues 18-121: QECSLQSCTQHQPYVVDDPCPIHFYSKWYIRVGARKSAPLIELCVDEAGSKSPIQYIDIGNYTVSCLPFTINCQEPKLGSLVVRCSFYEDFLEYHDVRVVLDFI

Key:
[1] = target: human complement component C3 (native) (human) (UniProt P01024); experiment: co-IP
[2] = target: SARS-CoV-2 ORF8 protein, flag-tagged codon-optimized construct (SARS-CoV-2) (UniProt P0DTC8); experiment: co-IP

Substance | binding [1] | binding [2]
SARS-CoV-2 ORF8 protein, flag-tagged codon-optimized construct (from UniProt P0DTC8 18-121) | binds | –
human complement C3b (from UniProt P01024 23-667; P01024 749-1663) | – | binds
human complement C3c (from UniProt P01024 23-667; P01024 749-954; P01024 1321-1663) (domain or fragment) | – | binds
human complement component C3 (native) (from UniProt P01024 23-667; P01024 672-1663) | – | binds
